These results are taken from patent US20230416740A1.

Protein sequences, listed by entry. Tags and fused reporters are not part of them. Lines headed by an entry give the natural chain unless they say otherwise; changes in a name come on top. Chains listed by the source or under a name are the forms on record and can include a tag or linker. Residues count along the entry.
UniProt Q8K212: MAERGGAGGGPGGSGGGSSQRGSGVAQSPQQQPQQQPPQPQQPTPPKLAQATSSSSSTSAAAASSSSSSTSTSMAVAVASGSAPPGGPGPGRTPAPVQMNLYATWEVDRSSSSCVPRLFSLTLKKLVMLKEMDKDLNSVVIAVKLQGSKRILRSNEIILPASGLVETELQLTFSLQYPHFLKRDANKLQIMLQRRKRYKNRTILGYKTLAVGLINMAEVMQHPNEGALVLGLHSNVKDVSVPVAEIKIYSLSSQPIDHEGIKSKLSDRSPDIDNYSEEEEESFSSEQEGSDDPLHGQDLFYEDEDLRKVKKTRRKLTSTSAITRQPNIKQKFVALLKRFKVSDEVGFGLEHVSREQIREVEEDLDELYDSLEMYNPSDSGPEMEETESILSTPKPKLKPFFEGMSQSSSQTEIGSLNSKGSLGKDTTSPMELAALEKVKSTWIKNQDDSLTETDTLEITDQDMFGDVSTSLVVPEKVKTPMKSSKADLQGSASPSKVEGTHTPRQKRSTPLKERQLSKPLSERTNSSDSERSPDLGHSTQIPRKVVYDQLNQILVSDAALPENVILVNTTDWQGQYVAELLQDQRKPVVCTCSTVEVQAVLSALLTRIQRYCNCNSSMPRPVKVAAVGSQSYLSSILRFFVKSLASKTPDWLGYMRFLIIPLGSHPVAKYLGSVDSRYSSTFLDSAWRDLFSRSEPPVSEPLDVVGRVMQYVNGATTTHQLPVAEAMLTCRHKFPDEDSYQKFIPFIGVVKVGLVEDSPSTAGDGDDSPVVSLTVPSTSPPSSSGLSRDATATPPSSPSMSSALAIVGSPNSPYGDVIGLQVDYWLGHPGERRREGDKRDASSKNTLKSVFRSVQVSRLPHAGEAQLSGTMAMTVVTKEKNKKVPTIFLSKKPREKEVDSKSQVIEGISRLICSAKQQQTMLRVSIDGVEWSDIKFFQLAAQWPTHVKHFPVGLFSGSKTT
HA-Pacs1: residues 114-961 of Q8K212
FLAG-tagged Pacs1 (amino acids 171-961): residues 171-961 of Q8K212

These are yes or no findings as the source states them, for the method shown. In cells and extracts the contact can be indirect. Some results given as binding are weak or reduced against the parent protein; the word gives no strength. Tags and fused reporters may be left off the sequences shown.

The target in experiment [1] is FLAG-tagged Pacs1 (amino acids 171-961) (mouse) (UniProt Q8K212). Kind of experiment: co-immunoprecipitation in co-transfected 293T cells (figure legend).
Experiment [2] shares this target. Kind of experiment: co-immunoprecipitation on anti-FLAG resin from co-transfected HEK 293T cells, western blot.
The target of experiment [3] is HA-Pacs1 (mouse) (UniProt Q8K212). In words: co-immunoprecipitation in co-transfected 293T cells (figure legend).
For experiment [4] the target is unchanged. In words: reciprocal co-immunoprecipitation on anti-FLAG resin from co-transfected HEK 293T cells, western blot.

B1: HA-tagged full-length Wdr37 (protein, mouse, UniProt Q8CBE3 1-496, looked up, not shown: small tags and cut ends)
chain: MPTESGSCSTARQAKQKRKSHSLSIRRTNSSEQERTGLPREMLEGQDSKLPSSVRSTLLELFGQIEREFENLYIENLELRREIDTLNERLAGEGQAIDGAELSKGQLKTKASHSTSQLSQKLKTTYKASTSKIVSSFKTTTSRAICQLVKEYIGHRDGIWDVSVTRTQPIVLGTASADHTALLWSIETGKCLVKYAGHVGSVNSIKFHPSEQLALTASGDQTAHIWRYVVQLPTPQPVADTSQQISGEDEIECSDKDEPDIDGDVSSDCPTVRVPLTSLKSHQGVVIAADWLVGGKQVVTASWDRTANLYDVETSELVHSLTGHDQELTHCCTHPTQRLVVTSSRDTTFRLWDFRDPSIHSVNVFQGHTDTVTSAVFTVGDNVVSGSDDRTVKVWDLKNMRSPIATIRTDSAINRINVCVGQKIIALPHDNRQVRLFDMSGVRLARLPRSSRQGHRRMVCCSAWSEDHPICNLFTCGFDRQAIGWNINIPALLQEK
Take B1: the binding result in experiment [1] and in experiment [2] was “binds” in each case.

B2: FLAG-Wdr37 (protein, mouse, UniProt Q8CBE3 1-496, looked up, not shown: small tags and cut ends)
chain: MPTESGSCSTARQAKQKRKSHSLSIRRTNSSEQERTGLPREMLEGQDSKLPSSVRSTLLELFGQIEREFENLYIENLELRREIDTLNERLAGEGQAIDGAELSKGQLKTKASHSTSQLSQKLKTTYKASTSKIVSSFKTTTSRAICQLVKEYIGHRDGIWDVSVTRTQPIVLGTASADHTALLWSIETGKCLVKYAGHVGSVNSIKFHPSEQLALTASGDQTAHIWRYVVQLPTPQPVADTSQQISGEDEIECSDKDEPDIDGDVSSDCPTVRVPLTSLKSHQGVVIAADWLVGGKQVVTASWDRTANLYDVETSELVHSLTGHDQELTHCCTHPTQRLVVTSSRDTTFRLWDFRDPSIHSVNVFQGHTDTVTSAVFTVGDNVVSGSDDRTVKVWDLKNMRSPIATIRTDSAINRINVCVGQKIIALPHDNRQVRLFDMSGVRLARLPRSSRQGHRRMVCCSAWSEDHPICNLFTCGFDRQAIGWNINIPALLQEK
For the molecule B2, the binding entry with HA-Pacs1 (mouse) [3] and in the experiment with HA-Pacs1 (mouse) [4] was “binds” each time.
